PubChem BioAssay AID652243 – Drosophila RNAi Screening Center | 2013
Test: 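Knock-downs that decrease or increase androgen receptor reporter signal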 (primary screen). System: Drosophila S2R+ cells. Reagents: long dsRNA against Drosophila genes. Timing: 72 h (48 h, then 24 h hormone). Conditions: synthetic androgen R1881 at 10 nM for 24 h. Measurement: 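Per-well raw luminescence of the androgen-driven firefly reporter and of the Renilla control, two replicates each, without normalisation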. Direction: firefly reporter light: higher = more light from androgen-responsive reporter; Renilla control light: higher = more constitutive control signal (cell number, transfection). Rule for the call: 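Across duplicate plates, a knock-down whose log firefly/Renilla ratio shifted a set fold down or up from the GFP/LacZ control mean was a hit; the downward cut appears as both 1.5 and 3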. Calls: active = hit: reporter lowered or raised; inactive = no hit.
The deposit covers about 24,000 reagents; below is a random part of those with a known target gene and a result. Of all reagents, 246 (1%) got an active call. 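Plates not normalised; calls are printed but the firefly/Renilla ratio behind them is not deposited; fold cut for lowering reported inconsistently.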 Raw values vary from plate to plate and are shown uncorrected. The numbers tell different reagents against one gene apart. A plus sign joins genes that one reagent is predicted to hit. No sequences are given here. The record does not give: the amount of reagent.

The first 2 entries as a preview:
no.	target	reagent	firefly reporter light, replicate 1	firefly reporter light, replicate 2	Renilla control light, replicate 1	Renilla control light, replicate 2	Call
1	CG13742 + CNT1	1	4.72e5	2.82e5	2.00e6	1.75e6	inactive
2	CG13742 + CNT1	2	5.11e5	4.79e5	2.29e6	1.35e6	inactive

The list itself, repeating the preview:
no.	target	reagent	firefly reporter light, replicate 1	firefly reporter light, replicate 2	Renilla control light, replicate 1	Renilla control light, replicate 2	Call
1	CG13742 + CNT1	1	4.72e5	2.82e5	2.00e6	1.75e6	inactive
2	CG13742 + CNT1	2	5.11e5	4.79e5	2.29e6	1.35e6	inactive
3	CG6330	1	69635	66026	4.86e5	5.53e5	inactive
4	Mrtf (Myocardin-related transcription factor)	1	17341	8606	6.44e5	3.67e5	active
5	Mrtf (Myocardin-related transcription factor)	2	5.47e5	5.46e5	9.06e5	8.35e5	inactive
6	Mrtf (Myocardin-related transcription factor)	3	9.02e5	8.26e5	7.79e5	8.53e5	inactive
7	CG13739	1	8.19e5	6.26e5	9.17e5	7.95e5	inactive
8	CG13739	2	3.53e5	3.66e5	8.98e5	9.91e5	inactive
9	tth (toothrin)	1	19508	19150	3.31e5	3.31e5	inactive
10	tth (toothrin)	2	3.64e5	3.79e5	6.59e5	5.51e5	inactive
11	CG1789	1	1.75e5	1.37e5	6.96e5	6.16e5	inactive
12	CG1789	2	1.23e6	1.19e6	1.46e6	1.27e6	inactive
13	CG1354	1	2.30e5	3.11e5	2.11e6	1.94e6	inactive
14	dan (distal antenna)	1	75359	78680	2.79e5	3.08e5	inactive
15	dan (distal antenna)	2	4.18e5	5.23e5	9.69e5	9.69e5	inactive
16	clu (clueless)	1	1.04e6	5.17e5	7.14e5	4.70e5	inactive
17	clu (clueless)	2	3.88e5	3.97e5	1.05e6	1.29e6	inactive
18	heph (hephaestus)	1	9.09e5	3.34e5	1.67e6	5.60e5	inactive
19	heph (hephaestus)	2	1.17e6	6.38e5	3.04e6	1.56e6	inactive
20	heph (hephaestus)	3	1.51e5	2.40e5	2.08e6	2.76e6	inactive
21	heph (hephaestus)	4	1.38e6	1.16e6	2.19e6	2.11e6	inactive
22	RpL22 (Ribosomal protein L22)	1	1.76e5	2.05e5	1.30e6	1.00e6	inactive
23	RpL22 (Ribosomal protein L22)	2	2.43e5	3.65e5	4.59e5	8.07e5	inactive
24	par-1	1	13542	13090	53251	86137	inactive
25	par-1	2	82770	96837	1.20e6	1.36e6	inactive
26	par-1	3	8.50e5	1.11e6	1.70e6	2.23e6	inactive
27	par-1	4	1.08e5	80439	1.03e6	1.20e6	inactive
28	par-1	5	65934	70386	8.80e5	8.46e5	inactive
29	par-1	6	6.52e5	5.05e5	1.83e6	1.33e6	inactive
30	TwdlQ (TweedleQ)	1	9.21e5	1.20e6	1.41e6	1.62e6	inactive
31	TwdlQ (TweedleQ)	2	2.90e5	2.21e5	6.41e5	6.94e5	inactive
32	Fitm (Fat storage inducing transmembrane protein)	1	7.74e5	8.82e5	1.16e6	1.18e6	inactive
33	Fitm (Fat storage inducing transmembrane protein)	2	3.32e5	2.83e5	7.81e5	9.23e5	inactive
34	CG11141	1	8.75e5	8.99e5	1.74e6	1.75e6	inactive
35	yata	1	1.40e5	1.57e5	1.25e6	1.86e6	inactive
36	yata	2					inactive
37	yata	3					inactive
38	CG13308	1	3.31e5	2.71e5	3.38e6	2.72e6	inactive
39	Tim13	1	2.97e5	2.53e5	3.54e6	2.69e6	inactive
40	CG34300	1	8.99e5	9.18e5	2.00e6	1.92e6	inactive
41	pds5	1	8.38e5	8.33e5	1.46e6	1.30e6	inactive
42	Pex23 (Peroxin 23)	1	48393	92521	4.71e5	3.99e5	inactive
43	Pex23 (Peroxin 23)	2	1.57e5	1.78e5	8.59e5	1.69e6	inactive
44	Pex23 (Peroxin 23)	3	5.76e5	8.54e5	9.63e5	1.66e6	inactive
45	Dic61B (Dynein intermediate chain at 61B)	1	8.67e5	7.67e5	9.96e5	7.09e5	inactive
46	Dic61B (Dynein intermediate chain at 61B)	2	2.16e5	1.82e5	4.31e5	4.67e5	inactive
47	CG10916	1	2.53e5	3.20e5	3.65e5	3.99e5	inactive
48	uri (unconventional prefoldin RPB5 interactor)	1	9.29e5	6.33e5	1.17e6	1.07e6	inactive
49	uri (unconventional prefoldin RPB5 interactor)	2	7.41e5	1.22e6	1.09e6	1.19e6	inactive
50	Mst98Ca (Male-specific RNA 98Ca)	1	5.59e5	5.34e5	1.18e6	1.50e6	inactive
51	mim (missing-in-metastasis)	1	3.48e5	5.03e5	1.30e6	1.78e6	inactive
52	mim (missing-in-metastasis)	2	2.77e5	1.80e5	5.17e5	4.68e5	inactive
53	Gr64f (Gustatory receptor 64f)	1	1.57e5	1.22e5	1.69e6	2.66e6	inactive
54	Gr64f (Gustatory receptor 64f)	2	4.50e5	4.10e5	9.16e5	8.02e5	inactive
55	Gk1 (Glycerol kinase 1)	1	9.30e5	6.01e5	1.07e6	8.39e5	inactive
56	Gk1 (Glycerol kinase 1)	2	59820	99889	6.26e5	1.12e6	inactive
57	snRNP-U1-C (small ribonucleoprotein particle U1 subunit C)	1	2.40e5	2.80e5	3.59e6	2.85e6	inactive
58	Hexo1 (Hexosaminidase 1)	1	1.44e5	1.53e5	2.69e6	2.63e6	inactive
